Part of at least one peptide drawing is inferred or uncertain, most often the ends. Where no end group is shown, it is not given here.
Columns and labels:
MB453 (MDA-MB453) cells = assay: MTS cell viability assay, MB453; type: cell-based, human; details: MDA-MB453, TP4 15 μg mL−1 (5.03 μM), 6 h
Method: (§1) Cell-lines used in this study were purchased from the Bioresource Collection and Research Center (BCRC) in and the cells were cultured by the standard cell culture procedures and conditions provided by the BCRC. MB231 (BCRC 60425), MB453 (BCRC 60429), and HDF cells were cultured as previously described by Ting et al. MCF7 […] cells were maintained in α-MEM medium (ThermoFisher Scientific) supplemented with 2 mM L-glutamine, 10% FBS, 0.1 mM non-essential amino acids, 1 mM sodium pyruvate, and antibiotics (100 U mL^−1 penicillin G and […] streptomycin). M10 (BCRC 60197) cells were maintained in α-MEM medium (ThermoFisher Scientific) supplemented with 10% FBS and antibiotics. With the exception of MB231 and MB453, all cells were cultured at 37° C. with 5% CO2. […] For the transfection assays, cells were transfected with 0.1-0.4 μg FOSB/FOSAB expression plasmid (Origene Technology Inc.) and cell viability was determined after 72 h. The transfection efficiencies (number of cells expressing eGFP/all cells) of the MB231 transfection assays were determined by observing ten randomly selected fields (from three independent transfections) of control GFP plasmid transfections under an inverted microscope (Olympus, IX71) coupled to a digital camera (Olympus DP80), using an […] (LCPlanFI 20×/0.40 Ph1). […]

[1] = test system: M10 normal human mammary epithelial cells; assay: MTS cell viability assay, M10; type: cell-based; details: M10, TP4 15 μg mL−1 (5.03 μM), 6 h
Method: as §1

HDF dermal fibroblasts = assay: MTS cell viability assay, HDF; type: cell-based, human; details: TP4 15 μg mL−1 (5.03 μM), 6 h
Method: as §1

phospho-p38 in HDF cells = assay: Western blot of active p38, HDF; type: cell-based, human; details: control HDF cells, TP4 treatment
[2] = test system: c-JUN in MB231 nuclear extracts; assay: AP-1 transcription factor activation assay, c-JUN; type: cell-based, human; details: TP4-treated, P=0.0272
CDH1 in MB231 cells = assay: Western blot of CDH1 level; type: cell-based, human; details: MB231, TP4 treatment, immunoblotting

FIHHIIGGLFSAGKAIHRLIRRRRR [TP4, tilapia piscidin 4]
BC cells killed (MB453 (MDA-MB453) cells): over 50% | effect on viability of control cells [1]: only minor effects | effect on viability of control cells (HDF dermal fibroblasts): only minor effects | active form of p38 decreased (phospho-p38 in HDF cells): not in control HDF cells | c-JUN activity [2]: decreased | levels of CDH1 (CDH1 in MB231 cells): significantly increased

From patent publication US10232013B2, “Use of an antimicrobial peptide TP4 in treating a cancer” (Academia Sinica, priority 2016, dated 2019)
